For 4 molecules, binding results are on record in publication PMC8994751.

By UniProt entry, the sequences of proteins in these tests, tags left out.
UniProt Q9GZV5: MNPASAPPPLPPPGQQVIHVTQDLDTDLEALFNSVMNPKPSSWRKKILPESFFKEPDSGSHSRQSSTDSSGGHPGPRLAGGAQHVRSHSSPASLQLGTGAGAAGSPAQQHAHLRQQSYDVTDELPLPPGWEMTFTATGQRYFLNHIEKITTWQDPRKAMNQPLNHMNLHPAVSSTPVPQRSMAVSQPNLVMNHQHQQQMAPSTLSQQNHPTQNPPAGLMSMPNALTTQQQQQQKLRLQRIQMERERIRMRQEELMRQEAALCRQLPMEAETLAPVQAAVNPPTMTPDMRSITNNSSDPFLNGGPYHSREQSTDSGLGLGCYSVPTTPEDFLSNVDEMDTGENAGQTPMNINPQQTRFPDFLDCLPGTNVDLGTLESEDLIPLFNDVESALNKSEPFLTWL

One test addresses T1, Flag-USP26 full length (UniProt Q9BXU7).
T1 sequence: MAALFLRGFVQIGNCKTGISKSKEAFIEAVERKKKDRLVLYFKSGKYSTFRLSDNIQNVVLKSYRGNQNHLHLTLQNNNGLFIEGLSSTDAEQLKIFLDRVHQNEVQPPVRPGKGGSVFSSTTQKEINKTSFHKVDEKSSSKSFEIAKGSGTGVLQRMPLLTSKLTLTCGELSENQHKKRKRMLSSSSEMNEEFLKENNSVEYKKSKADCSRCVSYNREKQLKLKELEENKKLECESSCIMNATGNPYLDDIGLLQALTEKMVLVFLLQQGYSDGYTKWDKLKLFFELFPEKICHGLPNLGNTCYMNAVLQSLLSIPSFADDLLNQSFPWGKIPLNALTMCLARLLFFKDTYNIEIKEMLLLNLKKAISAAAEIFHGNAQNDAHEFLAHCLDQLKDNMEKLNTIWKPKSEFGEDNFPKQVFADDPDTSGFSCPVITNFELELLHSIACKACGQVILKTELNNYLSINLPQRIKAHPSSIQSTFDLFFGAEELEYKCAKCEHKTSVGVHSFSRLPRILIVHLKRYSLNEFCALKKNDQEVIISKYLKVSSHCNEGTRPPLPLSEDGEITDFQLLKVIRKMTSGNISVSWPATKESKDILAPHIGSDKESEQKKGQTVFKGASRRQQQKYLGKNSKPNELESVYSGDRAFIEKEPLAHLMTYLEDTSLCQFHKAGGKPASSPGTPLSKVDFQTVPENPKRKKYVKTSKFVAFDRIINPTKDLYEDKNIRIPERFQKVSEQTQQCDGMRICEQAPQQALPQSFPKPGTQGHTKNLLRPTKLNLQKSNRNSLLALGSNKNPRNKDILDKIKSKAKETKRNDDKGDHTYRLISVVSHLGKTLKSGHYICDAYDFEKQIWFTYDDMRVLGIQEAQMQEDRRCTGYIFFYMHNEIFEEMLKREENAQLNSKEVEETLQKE
Kind of test: co-IP; HEK293 cells transfected with Flag-USP26 and Myc-TAZ full length or mutants; NP-40 lysis buffer; IP with Flag antibody, blot with Myc antibody.

The target of test [1] is TAZ (endogenous, CAL-62 cells) (human (endogenous in CAL-62)) (UniProt Q9GZV5). Briefly: co-IP; endogenous proteins from CAL-62 cells; RIPA lysis buffer; antibody as indicated, Protein A/G PLUS-Agarose, 4 °C overnight; western blot. (A western blot detects proteins with antibodies after separation by electrophoresis.)
Another test has as its target GST-TAZ (recombinant) (UniProt Q9GZV5). Kind of test: pull-down; 2 μg recombinant GST or GST-TAZ with 2 μg recombinant USP26 and glutathione beads; 0.5 mM EDTA, 10 mM HEPES pH 7.5, 0.1% NP-40, 50 mM NaCl, 0.5 mM DTT; 4 °C, 2 h; western blot; both purified.
The target in a further test is Myc-TAZ full length (UniProt Q9GZV5). Kind of test: co-IP; HEK293 cells transfected with Myc-TAZ and Flag-USP26 full length or mutants; NP-40 lysis buffer; IP with Myc antibody, blot with Flag antibody.

No constants are given. Whether binding was seen depends on the method and setting. For some of these results: In cells and extracts the contact can be indirect. Some entries that bind do so weakly or less than the wild type. For some of these results: Tags and fused reporters may be left off the sequences shown.

Take “Myc-TAZ full length (from UniProt Q9GZV5 1-400)”: in the test with Flag-USP26 full length, the binding entry was “binds”.

B1: USP26 (endogenous, CAL-62 cells) (enzyme, UniProt Q9BXU7 1-913)
chain: T1 sequence
B1: the binding result in test [1] is on record as “binds”.

B2: recombinant USP26 (enzyme, UniProt Q9BXU7 1-913)
chain: T1 sequence
Consider B2, for which, in the test with GST-TAZ (recombinant), the binding entry is on record as “binds”.

B3: Flag-USP26 USP domain (deletion mutant) (domain or fragment, UniProt Q9BXU7 295-886)
chain: HGLPNLGNTCYMNAVLQSLLSIPSFADDLLNQSFPWGKIPLNALTMCLARLLFFKDTYNIEIKEMLLLNLKKAISAAAEIFHGNAQNDAHEFLAHCLDQLKDNMEKLNTIWKPKSEFGEDNFPKQVFADDPDTSGFSCPVITNFELELLHSIACKACGQVILKTELNNYLSINLPQRIKAHPSSIQSTFDLFFGAEELEYKCAKCEHKTSVGVHSFSRLPRILIVHLKRYSLNEFCALKKNDQEVIISKYLKVSSHCNEGTRPPLPLSEDGEITDFQLLKVIRKMTSGNISVSWPATKESKDILAPHIGSDKESEQKKGQTVFKGASRRQQQKYLGKNSKPNELESVYSGDRAFIEKEPLAHLMTYLEDTSLCQFHKAGGKPASSPGTPLSKVDFQTVPENPKRKKYVKTSKFVAFDRIINPTKDLYEDKNIRIPERFQKVSEQTQQCDGMRICEQAPQQALPQSFPKPGTQGHTKNLLRPTKLNLQKSNRNSLLALGSNKNPRNKDILDKIKSKAKETKRNDDKGDHTYRLISVVSHLGKTLKSGHYICDAYDFEKQIWFTYDDMRVLGIQEAQMQEDRRCTGYIFFYMHN
B3: the binding result with Myc-TAZ full length was “binds”.
